In the supplement of paper PMC10077471:
In all, about 1,900 compounds were measured (“excess over highest single agent (ExcessHSA) synergy score, 6x6 matrix”: median about -83, lowest 2% from about -370 on). The list shows a part of the results.

Tested on: NCI-H446
Assay: excess over highest single agent (ExcessHSA) synergy score, 6x6 matrix; higher = less synergy (more negative = stronger synergy)
Settings: 72 h; CellTiter-Glo viability

SMILES | excess over highest single agent
COc1ccc2c(c[n+](C)c3c4cc5c(cc4ccc23)OCO5)c1OC + Cc1sc2c(c1C)C(c1ccc(Cl)cc1)=N[C@@H](CC(=O)OC(C)(C)C)c1nnc(C)n1-2 [NCGC00250412-19] | -248
O=C(O)CCNc1cc(N2CCc3ccccc3CC2)nc(-c2ccccn2)n1 + Cc1sc2c(c1C)C(c1ccc(Cl)cc1)=N[C@@H](CC(=O)OC(C)(C)C)c1nnc(C)n1-2 [NCGC00250412-19] | -73
C=CC[C@@H]1/C=C(\C)C[C@H](C)C[C@H](OC)[C@H]2O[C@@](O)(C(=O)C(=O)N3CCCC[C@H]3C(=O)O[C@H](/C(C)=C/[C@@H]3CC[C@@H](O)[C@H](OC)C3)[C@H](C)[C@@H](O)CC1=O)[C@H](C)C[C@@H]2OC + Cc1sc2c(c1C)C(c1ccc(Cl)cc1)=N[C@@H](CC(=O)OC(C)(C)C)c1nnc(C)n1-2 [NCGC00250412-19] | -143
COc1ccc2[nH]cc(CCNC(C)=O)c2c1 + Cc1sc2c(c1C)C(c1ccc(Cl)cc1)=N[C@@H](CC(=O)OC(C)(C)C)c1nnc(C)n1-2 [NCGC00250412-19] | 1.14
Cc1ccc(C(=O)c2cc(O)c(O)c([N+](=O)[O-])c2)cc1 + Cc1sc2c(c1C)C(c1ccc(Cl)cc1)=N[C@@H](CC(=O)OC(C)(C)C)c1nnc(C)n1-2 [NCGC00250412-19] | -117
CN1C2CCCC1CC(NC(=O)c1nn(C)c3ccccc13)C2 (stereo not given) + Cc1sc2c(c1C)C(c1ccc(Cl)cc1)=N[C@@H](CC(=O)OC(C)(C)C)c1nnc(C)n1-2 [NCGC00250412-19] | -119
CC(=O)Nc1ccc(OC[C@](C)(O)C(=O)Nc2ccc([N+](=O)[O-])c(C(F)(F)F)c2)cc1 + Cc1sc2c(c1C)C(c1ccc(Cl)cc1)=N[C@@H](CC(=O)OC(C)(C)C)c1nnc(C)n1-2 [NCGC00250412-19] | 270
CCN(CC)CC#CCOC(=O)C(O)(c1ccccc1)C1CCCCC1 (stereo not given) + Cc1sc2c(c1C)C(c1ccc(Cl)cc1)=N[C@@H](CC(=O)OC(C)(C)C)c1nnc(C)n1-2 [NCGC00250412-19] | -71.2
Cc1ncc([N+](=O)[O-])n1CCO + Cc1sc2c(c1C)C(c1ccc(Cl)cc1)=N[C@@H](CC(=O)OC(C)(C)C)c1nnc(C)n1-2 [NCGC00250412-19] | 70.4
OC(CCN1CCCCC1)(c1ccccc1)C1CC2C=CC1C2 (stereo not given) + Cc1sc2c(c1C)C(c1ccc(Cl)cc1)=N[C@@H](CC(=O)OC(C)(C)C)c1nnc(C)n1-2 [NCGC00250412-19] | -37.5
CN(C)c1ccc(C(=O)NCCCCCCC(=O)NO)cc1 + Cc1sc2c(c1C)C(c1ccc(Cl)cc1)=N[C@@H](CC(=O)OC(C)(C)C)c1nnc(C)n1-2 [NCGC00250412-19] | -250
C[C@H]1[C@@H](O)O[C@@H]2O[C@@]3(C)CC[C@H]4[C@H](C)CC[C@@H]1[C@@]24OO3 + Cc1sc2c(c1C)C(c1ccc(Cl)cc1)=N[C@@H](CC(=O)OC(C)(C)C)c1nnc(C)n1-2 [NCGC00250412-19] | -199
COc1ccc(-c2oc3c(CC=C(C)C)c(O[C@@H]4O[C@H](CO)[C@@H](O)[C@H](O)[C@H]4O)cc(O)c3c(=O)c2O[C@@H]2O[C@@H](C)[C@H](O)[C@@H](O)[C@H]2O)cc1 + Cc1sc2c(c1C)C(c1ccc(Cl)cc1)=N[C@@H](CC(=O)OC(C)(C)C)c1nnc(C)n1-2 [NCGC00250412-19] | 17.3
CCn1cc(C(=O)O)c(=O)c2ccc(C)nc21 + Cc1sc2c(c1C)C(c1ccc(Cl)cc1)=N[C@@H](CC(=O)OC(C)(C)C)c1nnc(C)n1-2 [NCGC00250412-19] | -189
CCO[C@@H]1OC(=O)C[C@@H]1NC(=O)[C@@H]1CCCN1C(=O)[C@@H](NC(=O)c1ccc(N)c(Cl)c1)C(C)(C)C + Cc1sc2c(c1C)C(c1ccc(Cl)cc1)=N[C@@H](CC(=O)OC(C)(C)C)c1nnc(C)n1-2 [NCGC00250412-19] | -51.3
COc1cc2nc(N3CCN(C(=O)c4ccco4)CC3)nc(N)c2cc1OC + Cc1sc2c(c1C)C(c1ccc(Cl)cc1)=N[C@@H](CC(=O)OC(C)(C)C)c1nnc(C)n1-2 [NCGC00250412-19] | 55.3
NCCS(=O)(=O)O + Cc1sc2c(c1C)C(c1ccc(Cl)cc1)=N[C@@H](CC(=O)OC(C)(C)C)c1nnc(C)n1-2 [NCGC00250412-19] | -91.5
COc1nc(C)nc(Cl)c1NC1=NCCN1 + Cc1sc2c(c1C)C(c1ccc(Cl)cc1)=N[C@@H](CC(=O)OC(C)(C)C)c1nnc(C)n1-2 [NCGC00250412-19] | -61.6
C[C@](O)(COc1ccc(C#N)cc1)C(=O)Nc1ccc(C#N)c(C(F)(F)F)c1 + Cc1sc2c(c1C)C(c1ccc(Cl)cc1)=N[C@@H](CC(=O)OC(C)(C)C)c1nnc(C)n1-2 [NCGC00250412-19] | -172
Cc1ccc(NC(=O)c2ccc(CN3CCN(C)CC3)cc2)cc1Nc1nc(-c2cccnc2)cs1 + Cc1sc2c(c1C)C(c1ccc(Cl)cc1)=N[C@@H](CC(=O)OC(C)(C)C)c1nnc(C)n1-2 [NCGC00250412-19] | 130
CCCC[C@@H](C=O)NC(=O)[C@H](CC(C)C)NC(=O)OCc1ccccc1 + Cc1sc2c(c1C)C(c1ccc(Cl)cc1)=N[C@@H](CC(=O)OC(C)(C)C)c1nnc(C)n1-2 [NCGC00250412-19] | -104
Cc1ccc(S(=O)(=O)NC(=O)NN2CC3CCCC3C2)cc1 (stereo not given) + Cc1sc2c(c1C)C(c1ccc(Cl)cc1)=N[C@@H](CC(=O)OC(C)(C)C)c1nnc(C)n1-2 [NCGC00250412-19] | -35.8
CCN(CC)CCOc1ccc(Cc2ccccc2)cc1 + Cc1sc2c(c1C)C(c1ccc(Cl)cc1)=N[C@@H](CC(=O)OC(C)(C)C)c1nnc(C)n1-2 [NCGC00250412-19] | -138
O=c1c(O)c(-c2cc(O)c(O)c(O)c2)oc2cc(O)cc(O)c12 + Cc1sc2c(c1C)C(c1ccc(Cl)cc1)=N[C@@H](CC(=O)OC(C)(C)C)c1nnc(C)n1-2 [NCGC00250412-19] | -52.1
CC(C)C[C@@H](C=O)NC(=O)[C@H](CC(C)C)NC(=O)[C@H](CC(C)C)NC(=O)OCc1ccccc1 + Cc1sc2c(c1C)C(c1ccc(Cl)cc1)=N[C@@H](CC(=O)OC(C)(C)C)c1nnc(C)n1-2 [NCGC00250412-19] | -203

Pulled one by one from above (2):
SMILES | excess over highest single agent
C=CC[C@@H]1/C=C(\C)C[C@H](C)C[C@H](OC)[C@H]2O[C@@](O)(C(=O)C(=O)N3CCCC[C@H]3C(=O)O[C@H](/C(C)=C/[C@@H]3CC[C@@H](O)[C@H](OC)C3)[C@H](C)[C@@H](O)CC1=O)[C@H](C)C[C@@H]2OC + Cc1sc2c(c1C)C(c1ccc(Cl)cc1)=N[C@@H](CC(=O)OC(C)(C)C)c1nnc(C)n1-2 [NCGC00250412-19] | -143
CC(=O)Nc1ccc(OC[C@](C)(O)C(=O)Nc2ccc([N+](=O)[O-])c(C(F)(F)F)c2)cc1 + Cc1sc2c(c1C)C(c1ccc(Cl)cc1)=N[C@@H](CC(=O)OC(C)(C)C)c1nnc(C)n1-2 [NCGC00250412-19] | 270
